Among the data in article doi:10.64898/2025.12.03.691809 are binding values, retold here.

The chains behind the UniProt entries cited, without tags or fusion partners. Where a name states a change or a piece, a line headed by the entry shows the natural chain unless it says otherwise. A line that says so, or that is headed by a name, gives the form on record, which may keep a tag or linker. Residues count along the entry.
UniProt Q9HD67: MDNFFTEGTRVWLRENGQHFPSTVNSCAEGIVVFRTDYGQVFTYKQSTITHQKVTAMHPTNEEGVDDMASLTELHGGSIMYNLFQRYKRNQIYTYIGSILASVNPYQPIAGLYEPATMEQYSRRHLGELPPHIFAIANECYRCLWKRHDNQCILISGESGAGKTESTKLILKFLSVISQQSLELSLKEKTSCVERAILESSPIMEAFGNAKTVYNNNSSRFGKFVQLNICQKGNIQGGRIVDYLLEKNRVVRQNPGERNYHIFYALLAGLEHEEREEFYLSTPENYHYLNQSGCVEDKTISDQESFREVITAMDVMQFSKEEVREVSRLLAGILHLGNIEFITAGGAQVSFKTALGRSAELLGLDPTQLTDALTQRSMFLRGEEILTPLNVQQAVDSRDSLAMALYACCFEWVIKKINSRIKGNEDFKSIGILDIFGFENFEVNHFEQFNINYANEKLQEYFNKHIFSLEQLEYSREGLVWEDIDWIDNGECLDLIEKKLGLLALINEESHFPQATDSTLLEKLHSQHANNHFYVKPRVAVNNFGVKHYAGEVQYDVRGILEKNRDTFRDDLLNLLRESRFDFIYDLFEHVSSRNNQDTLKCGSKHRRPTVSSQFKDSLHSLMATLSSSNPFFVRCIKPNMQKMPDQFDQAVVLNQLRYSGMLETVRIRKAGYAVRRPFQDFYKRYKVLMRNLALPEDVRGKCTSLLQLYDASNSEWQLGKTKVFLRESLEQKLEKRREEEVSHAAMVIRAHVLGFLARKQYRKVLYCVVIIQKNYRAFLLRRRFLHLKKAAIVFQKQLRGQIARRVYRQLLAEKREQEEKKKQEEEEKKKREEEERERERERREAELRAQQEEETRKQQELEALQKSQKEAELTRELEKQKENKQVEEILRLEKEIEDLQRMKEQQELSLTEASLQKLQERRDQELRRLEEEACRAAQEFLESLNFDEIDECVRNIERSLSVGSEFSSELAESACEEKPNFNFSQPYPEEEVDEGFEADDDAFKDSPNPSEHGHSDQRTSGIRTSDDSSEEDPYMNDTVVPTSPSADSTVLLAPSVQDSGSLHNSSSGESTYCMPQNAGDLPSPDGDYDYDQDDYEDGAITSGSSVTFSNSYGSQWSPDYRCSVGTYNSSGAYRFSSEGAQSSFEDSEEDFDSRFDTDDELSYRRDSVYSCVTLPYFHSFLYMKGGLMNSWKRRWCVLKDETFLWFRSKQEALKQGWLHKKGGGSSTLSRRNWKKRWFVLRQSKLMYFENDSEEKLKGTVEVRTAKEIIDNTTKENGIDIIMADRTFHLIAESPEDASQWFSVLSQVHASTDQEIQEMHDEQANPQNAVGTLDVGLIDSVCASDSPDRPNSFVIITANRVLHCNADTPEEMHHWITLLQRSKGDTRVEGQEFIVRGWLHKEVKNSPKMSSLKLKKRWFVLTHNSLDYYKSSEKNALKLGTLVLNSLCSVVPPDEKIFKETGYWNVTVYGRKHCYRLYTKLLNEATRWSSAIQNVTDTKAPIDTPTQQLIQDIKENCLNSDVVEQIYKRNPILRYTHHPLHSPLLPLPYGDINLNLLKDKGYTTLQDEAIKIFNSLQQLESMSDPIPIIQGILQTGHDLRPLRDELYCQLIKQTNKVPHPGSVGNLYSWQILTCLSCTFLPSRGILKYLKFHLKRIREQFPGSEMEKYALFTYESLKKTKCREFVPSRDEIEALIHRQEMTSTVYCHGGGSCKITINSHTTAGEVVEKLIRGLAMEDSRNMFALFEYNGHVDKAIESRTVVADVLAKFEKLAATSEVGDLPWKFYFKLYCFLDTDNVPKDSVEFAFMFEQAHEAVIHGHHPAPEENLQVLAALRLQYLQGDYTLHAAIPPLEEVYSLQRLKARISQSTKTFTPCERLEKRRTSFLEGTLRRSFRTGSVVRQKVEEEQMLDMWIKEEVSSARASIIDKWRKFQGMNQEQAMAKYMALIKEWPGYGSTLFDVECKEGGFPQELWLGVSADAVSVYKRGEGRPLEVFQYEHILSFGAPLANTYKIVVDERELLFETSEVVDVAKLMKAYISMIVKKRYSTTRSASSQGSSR
GFP-tagged MYO10 motor domain: residues 1-741 of Q9HD67
UniProt P79114, residues 2-948: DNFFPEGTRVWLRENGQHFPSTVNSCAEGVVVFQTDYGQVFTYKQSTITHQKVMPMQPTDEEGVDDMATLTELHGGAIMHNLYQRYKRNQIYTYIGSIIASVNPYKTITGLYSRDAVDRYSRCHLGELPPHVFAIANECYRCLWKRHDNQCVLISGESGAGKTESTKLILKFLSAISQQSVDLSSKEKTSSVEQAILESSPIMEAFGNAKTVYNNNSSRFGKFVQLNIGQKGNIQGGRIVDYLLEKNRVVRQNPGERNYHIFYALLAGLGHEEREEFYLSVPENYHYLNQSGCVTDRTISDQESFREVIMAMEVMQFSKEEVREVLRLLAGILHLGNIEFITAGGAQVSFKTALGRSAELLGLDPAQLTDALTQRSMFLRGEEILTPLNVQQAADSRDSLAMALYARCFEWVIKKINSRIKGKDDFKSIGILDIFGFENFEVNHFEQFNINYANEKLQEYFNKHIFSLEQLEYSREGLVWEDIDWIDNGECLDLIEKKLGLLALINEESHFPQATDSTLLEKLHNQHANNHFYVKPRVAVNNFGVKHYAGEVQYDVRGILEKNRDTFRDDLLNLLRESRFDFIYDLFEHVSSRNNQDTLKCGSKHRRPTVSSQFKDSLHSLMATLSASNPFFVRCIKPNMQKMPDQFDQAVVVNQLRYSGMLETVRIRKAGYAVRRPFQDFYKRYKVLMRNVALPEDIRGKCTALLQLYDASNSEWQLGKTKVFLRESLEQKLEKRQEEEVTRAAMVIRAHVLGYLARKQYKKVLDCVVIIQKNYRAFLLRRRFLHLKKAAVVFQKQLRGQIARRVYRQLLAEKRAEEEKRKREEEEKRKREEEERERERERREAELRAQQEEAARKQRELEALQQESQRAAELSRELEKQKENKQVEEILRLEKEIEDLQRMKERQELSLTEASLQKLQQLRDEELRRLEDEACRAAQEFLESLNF
UniProt P50990: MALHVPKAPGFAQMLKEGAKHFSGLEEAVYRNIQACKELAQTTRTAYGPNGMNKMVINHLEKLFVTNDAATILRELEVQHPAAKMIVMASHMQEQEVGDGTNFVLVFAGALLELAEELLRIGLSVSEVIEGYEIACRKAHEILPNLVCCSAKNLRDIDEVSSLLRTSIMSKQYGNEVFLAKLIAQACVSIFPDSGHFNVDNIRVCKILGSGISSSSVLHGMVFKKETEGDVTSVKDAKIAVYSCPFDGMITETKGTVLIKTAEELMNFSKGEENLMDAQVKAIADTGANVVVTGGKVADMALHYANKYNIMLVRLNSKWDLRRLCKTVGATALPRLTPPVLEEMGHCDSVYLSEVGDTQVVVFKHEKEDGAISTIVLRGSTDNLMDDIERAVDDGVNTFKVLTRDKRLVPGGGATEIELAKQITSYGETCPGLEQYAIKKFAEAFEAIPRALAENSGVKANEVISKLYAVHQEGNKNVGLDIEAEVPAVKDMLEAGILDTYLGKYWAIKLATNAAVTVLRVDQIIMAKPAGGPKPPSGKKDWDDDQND

Test [1] has as its target GFP-tagged MYO10 motor domain (human) (UniProt Q9HD67). Nature of the test: pull-down.
In a further test the target is MYO10-mScarlet (UniProt Q9HD67). Nature of the test: FRET or BRET. (BRET reads energy transfer from a luciferase to a nearby fluorophore.)
In another test the target is MYO10-HMM (bovine) (UniProt P79114). Nature of the test: co-IP.
For test [2], the target named is GFP-tagged full-length MYO10 (human) (UniProt Q9HD67). Nature of the test: co-IP.

No constants are given. Whether binding was seen depends on the method and setting. For some of these results: Binding seen in cells or lysates may run through a third protein. Some results given as binding are weak or reduced against the parent protein; the word gives no strength.

Regarding “recombinant GST-tagged CCT8 (from UniProt P50990 1-548)”, the binding entry in test [1] is listed as “binds”.
For the substance “C-terminally tagged CCT8 (from UniProt P50990 1-548)”, the binding result with MYO10-mScarlet is on record as “binds”.
On to “Endogenous CCT8 (from UniProt P50990 1-548)”, for which the binding entry (in the test with MYO10-HMM (bovine); in test [2]) was “binds” each time.
